According to publication doi:10.1101/2023.12.07.570558 (bioRxiv, 2023):
Read-outs that look alike come from different tables or passages of the source. No constants are given. Whether binding was seen depends on the method and setting. In cells and extracts the contact can be indirect. Some binding calls cover weakened binding; strength is not graded here. For some of these results: Where a sequence is shown, tags or fusion partners need not be part of it.

Protein sequences, listed by entry. Tags and fused reporters are not part of them.
UniProt O35625: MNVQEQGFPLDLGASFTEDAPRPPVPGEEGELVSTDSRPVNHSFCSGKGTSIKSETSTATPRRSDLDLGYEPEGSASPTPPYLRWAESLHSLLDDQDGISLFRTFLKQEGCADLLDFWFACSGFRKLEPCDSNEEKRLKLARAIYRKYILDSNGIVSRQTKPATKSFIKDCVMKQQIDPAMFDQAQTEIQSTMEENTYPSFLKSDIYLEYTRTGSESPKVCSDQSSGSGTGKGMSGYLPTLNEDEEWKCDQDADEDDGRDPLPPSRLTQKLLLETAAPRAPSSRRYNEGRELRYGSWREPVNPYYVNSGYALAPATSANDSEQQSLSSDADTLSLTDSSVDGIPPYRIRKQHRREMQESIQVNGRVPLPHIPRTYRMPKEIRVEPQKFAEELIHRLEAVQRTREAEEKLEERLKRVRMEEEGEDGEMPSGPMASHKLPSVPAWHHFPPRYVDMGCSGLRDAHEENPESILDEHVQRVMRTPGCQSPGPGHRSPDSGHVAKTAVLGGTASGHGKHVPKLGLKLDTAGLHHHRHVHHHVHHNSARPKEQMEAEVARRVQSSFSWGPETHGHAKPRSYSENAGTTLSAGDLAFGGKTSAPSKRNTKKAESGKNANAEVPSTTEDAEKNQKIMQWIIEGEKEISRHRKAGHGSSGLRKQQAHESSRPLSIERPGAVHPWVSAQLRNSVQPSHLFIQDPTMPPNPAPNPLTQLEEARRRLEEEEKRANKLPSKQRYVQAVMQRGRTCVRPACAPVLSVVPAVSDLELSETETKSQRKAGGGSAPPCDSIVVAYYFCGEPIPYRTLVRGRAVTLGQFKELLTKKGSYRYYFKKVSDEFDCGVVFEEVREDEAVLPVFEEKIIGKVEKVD
UniProt Q96EB6: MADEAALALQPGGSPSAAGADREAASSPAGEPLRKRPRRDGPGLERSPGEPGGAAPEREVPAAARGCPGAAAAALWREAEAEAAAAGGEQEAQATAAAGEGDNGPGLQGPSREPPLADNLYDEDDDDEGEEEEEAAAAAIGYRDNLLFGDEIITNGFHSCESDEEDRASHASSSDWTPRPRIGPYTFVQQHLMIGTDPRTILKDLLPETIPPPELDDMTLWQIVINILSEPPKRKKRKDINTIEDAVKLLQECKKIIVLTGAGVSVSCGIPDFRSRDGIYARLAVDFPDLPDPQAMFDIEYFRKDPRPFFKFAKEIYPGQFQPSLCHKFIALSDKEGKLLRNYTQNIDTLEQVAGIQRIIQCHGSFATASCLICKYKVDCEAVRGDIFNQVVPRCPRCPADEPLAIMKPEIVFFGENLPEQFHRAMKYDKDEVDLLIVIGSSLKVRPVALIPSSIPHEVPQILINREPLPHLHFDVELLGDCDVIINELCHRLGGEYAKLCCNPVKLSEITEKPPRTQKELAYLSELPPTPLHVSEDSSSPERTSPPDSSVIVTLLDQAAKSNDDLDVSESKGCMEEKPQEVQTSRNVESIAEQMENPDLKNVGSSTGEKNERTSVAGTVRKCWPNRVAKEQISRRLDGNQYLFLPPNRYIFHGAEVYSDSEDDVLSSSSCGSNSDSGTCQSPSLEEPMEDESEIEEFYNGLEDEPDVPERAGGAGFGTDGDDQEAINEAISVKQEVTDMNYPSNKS
UniProt Q9NRC8: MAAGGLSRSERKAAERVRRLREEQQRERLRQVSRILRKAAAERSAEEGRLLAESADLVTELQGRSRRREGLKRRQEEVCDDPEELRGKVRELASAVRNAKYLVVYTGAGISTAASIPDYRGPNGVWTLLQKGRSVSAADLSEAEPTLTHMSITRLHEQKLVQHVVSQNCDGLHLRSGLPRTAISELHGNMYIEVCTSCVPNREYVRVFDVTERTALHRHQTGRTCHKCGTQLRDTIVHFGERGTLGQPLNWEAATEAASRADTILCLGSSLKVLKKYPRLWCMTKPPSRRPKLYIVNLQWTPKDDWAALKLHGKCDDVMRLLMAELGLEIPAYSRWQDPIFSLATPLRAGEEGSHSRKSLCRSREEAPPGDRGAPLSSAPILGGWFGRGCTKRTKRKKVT
UniProt Q8N6T7: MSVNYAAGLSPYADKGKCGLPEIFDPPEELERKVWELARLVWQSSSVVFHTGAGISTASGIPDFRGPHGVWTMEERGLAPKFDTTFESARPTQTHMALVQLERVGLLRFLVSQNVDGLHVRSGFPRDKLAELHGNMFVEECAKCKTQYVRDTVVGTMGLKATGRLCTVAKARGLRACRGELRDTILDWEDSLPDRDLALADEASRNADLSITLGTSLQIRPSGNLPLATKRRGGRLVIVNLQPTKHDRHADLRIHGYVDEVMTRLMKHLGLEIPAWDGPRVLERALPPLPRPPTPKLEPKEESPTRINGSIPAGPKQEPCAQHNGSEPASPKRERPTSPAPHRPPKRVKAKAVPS

Experiments:
Assay in all cases: co-IP
[1] = molecular target: T1, Myc-tagged TULP3 (expressed in HEK293T cells) (human) (UniProt O75386)
T1 sequence: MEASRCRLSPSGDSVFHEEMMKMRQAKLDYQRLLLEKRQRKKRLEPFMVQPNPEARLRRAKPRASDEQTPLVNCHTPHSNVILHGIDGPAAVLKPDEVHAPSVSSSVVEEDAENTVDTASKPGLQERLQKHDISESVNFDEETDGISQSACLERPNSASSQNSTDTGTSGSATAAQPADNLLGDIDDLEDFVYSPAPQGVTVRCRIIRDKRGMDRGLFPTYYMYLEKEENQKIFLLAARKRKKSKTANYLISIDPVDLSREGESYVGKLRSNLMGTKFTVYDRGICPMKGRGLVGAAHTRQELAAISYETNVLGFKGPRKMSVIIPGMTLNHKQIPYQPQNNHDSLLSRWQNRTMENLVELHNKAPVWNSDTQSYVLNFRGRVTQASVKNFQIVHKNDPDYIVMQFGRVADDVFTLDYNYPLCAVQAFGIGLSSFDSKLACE

[2] = molecular target: AXIN (mouse (endogenous in MEFs)) (UniProt O35625)
[3] = molecular target: T1, Myc-tagged TULP3 (expressed in HEK293T cells) (human); remark: listed apart in the source
[4] = molecular target: HA-tagged SIRT1 (expressed in HEK293T cells) (human) (UniProt Q96EB6)

HA-tagged SIRT7 (from UniProt Q9NRC8 1-400) (enzyme)
binding [1]: binds

HA-tagged SIRT1 (expressed in HEK293T cells) (from UniProt Q96EB6) (enzyme)
binding [1]: binds

HA-tagged SIRT6 (from UniProt Q8N6T7 1-355) (enzyme)
binding [1]: binds

B1: liver kinase B1 (LKB1) (enzyme, UniProt Q9WTK7 1-436)
chain: MDVADPEPLGLFSEGELMSVGMDTFIHRIDSTEVIYQPRRKRAKLIGKYLMGDLLGEGSYGKVKEVLDSETLCRRAVKILKKKKLRRIPNGEANVKKEIQLLRRLRHRNVIQLVDVLYNEEKQKMYMVMEYCVCGMQEMLDSVPEKRFPVCQAHGYFRQLIDGLEYLHSQGIVHKDIKPGNLLLTTNGTLKISDLGVAEALHPFAVDDTCRTSQGSPAFQPPEIANGLDTFSGFKVDIWSAGVTLYNITTGLYPFEGDNIYKLFENIGRGDFTIPCDCGPPLSDLLRGMLEYEPAKRFSIRQIRQHSWFRKKHPLAEALVPIPPSPDTKDRWRSMTVVPYLEDLHGRAEEEEEEDLFDIEDGIIYTQDFTVPGQVLEEEVGQNGQSHSLPKAVCVNGTEPQLSSKVKPEGRPGTANPARKVCSSNKIRRLSACKQQ
binding [2]: binds

B2: HA-tagged SIRT2 (enzyme, UniProt Q8IXJ6 1-389)
chain: MAEPDPSHPLETQAGKVQEAQDSDSDSEGGAAGGEADMDFLRNLFSQTLSLGSQKERLLDELTLEGVARYMQSERCRRVICLVGAGISTSAGIPDFRSPSTGLYDNLEKYHLPYPEAIFEISYFKKHPEPFFALAKELYPGQFKPTICHYFMRLLKDKGLLLRCYTQNIDTLERIAGLEQEDLVEAHGTFYTSHCVSASCRHEYPLSWMKEKIFSEVTPKCEDCQSLVKPDIVFFGESLPARFFSCMQSDFLKVDLLLVMGTSLQVQPFASLISKAPLSTPRLLINKEKAGQSDPFLGMIMGLGGGMDFDSKKAYRDVAWLGECDQGCLALAELLGWKKELEDLVRREHASIDAQSGAGVPNPSTSASPKKSPPPAKDEARTTEREKPQ
binding [3]: binds

B3: His-tagged TULP3 (bacterially expressed) (natural protein)
chain: MEASRCRLSPSGDSVFHEEMMKMRQAKLDYQRLLLEKRQRKKRLEPFMVQPNPEARLRRAKPRASDEQTPLVNCHTPHSNVILHGIDGPAAVLKPDEVHAPSVSSSVVEEDAENTVDTASKPGLQERLQKHDISESVNFDEETDGISQSACLERPNSASSQNSTDTGTSGSATAAQPADNLLGDIDDLEDFVYSPAPQGVTVRCRIIRDKRGMDRGLFPTYYMYLEKEENQKIFLLAARKRKKSKTANYLISIDPVDLSREGESYVGKLRSNLMGTKFTVYDRGICPMKGRGLVGAAHTRQELAAISYETNVLGFKGPRKMSVIIPGMTLNHKQIPYQPQNNHDSLLSRWQNRTMENLVELHNKAPVWNSDTQSYVLNFRGRVTQASVKNFQIVHKNDPDYIVMQFGRVADDVFTLDYNYPLCAVQAFGIGLSSFDSKLACE
binding [4]: binds

B4: HA-tagged SIRT4 (enzyme, UniProt Q9Y6E7 29-314)
chain: IGLFVPASPPLDPEKVKELQRFITLSKRLLVMTGAGISTESGIPDYRSEKVGLYARTDRRPIQHGDFVRSAPIRQRYWARNFVGWPQFSSHQPNPAHWALSTWEKLGKLYWLVTQNVDALHTKAGSRRLTELHGCMDRVLCLDCGEQTPRGVLQERFQVLNPTWSAEAHGLAPDGDVFLSEEQVRSFQVPTCVQCGGHLKPDVVFFGDTVNPDKVDFVHKRVKEADSLLVVGSSLQVYSGYRFILTAWEKKLPIAILNIGPTRSDDLACLKLNSRCGELLPLIDPC
binding [3]: binds
